Experimental findings from PMC9597257 are described below.

Amino acid sequences for entries named in this document (tags omitted). A change or cut given only in a name is not applied to a line headed by its entry.
UniProt A8E4Q6: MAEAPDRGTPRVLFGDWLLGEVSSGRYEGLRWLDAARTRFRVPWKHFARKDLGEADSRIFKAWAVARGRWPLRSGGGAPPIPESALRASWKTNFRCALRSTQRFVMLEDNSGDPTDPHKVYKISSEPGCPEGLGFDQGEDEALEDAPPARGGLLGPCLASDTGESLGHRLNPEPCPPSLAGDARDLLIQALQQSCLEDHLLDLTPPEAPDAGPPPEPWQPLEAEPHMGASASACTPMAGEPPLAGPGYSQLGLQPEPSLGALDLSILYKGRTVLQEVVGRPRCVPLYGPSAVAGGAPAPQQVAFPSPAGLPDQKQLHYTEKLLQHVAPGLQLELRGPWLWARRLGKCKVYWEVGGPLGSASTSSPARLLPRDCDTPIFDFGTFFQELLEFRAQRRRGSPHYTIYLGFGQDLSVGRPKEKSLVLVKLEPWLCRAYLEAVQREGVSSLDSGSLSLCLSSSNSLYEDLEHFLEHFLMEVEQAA

These are yes or no findings as the source states them, for the method shown. Binding seen in cells or lysates may run through a third protein. For part of these data: A result given as binding can be weak or reduced; the word gives no strength.

The target of one experiment is T1, stimulator of interferon genes (STING) (Bos taurus (endogenous in bovine bladder tissue)) (UniProt Q2KI99).
T1 sequence: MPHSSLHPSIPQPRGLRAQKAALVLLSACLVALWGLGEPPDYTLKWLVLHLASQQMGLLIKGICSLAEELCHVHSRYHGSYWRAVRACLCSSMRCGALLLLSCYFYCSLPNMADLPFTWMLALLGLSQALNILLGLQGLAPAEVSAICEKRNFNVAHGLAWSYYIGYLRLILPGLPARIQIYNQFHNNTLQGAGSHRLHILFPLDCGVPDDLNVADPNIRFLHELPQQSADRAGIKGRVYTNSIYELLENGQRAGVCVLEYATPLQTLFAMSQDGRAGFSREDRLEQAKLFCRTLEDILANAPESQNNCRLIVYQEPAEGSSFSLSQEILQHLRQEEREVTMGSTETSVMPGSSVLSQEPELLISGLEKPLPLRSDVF
Nature of the experiment: co-IP; 1 mg total protein extract of bovine bladder samples (RIPA buffer), anti-STING antibody, 1 h at 4°C, Protein A/G-Plus Agarose overnight at 4°C, four washes in lysis buffer, western blot. Background: Immunoblotting shows a protein as a band on a membrane.
For the substance ELKS, the binding entry is “binds”.
In the case of IRF7 (from UniProt A8E4Q6), the binding entry is on record as “binds”.
Same read-out and setting: as for MEKK3, the entry is “binds”.
The same measure, in the same setting: as for TANK-binding kinase 1 (TBK1), the entry is “binds”; as for “bovine papillomavirus (BPV) E5 oncoprotein”, “binds”.

The next experiment deals with T2, cyclic guanosine monophosphate-adenosine monophosphate synthase (cGAS) (Bos taurus (endogenous in bovine bladder tissue)) (UniProt E1BGN7).
T2 sequence: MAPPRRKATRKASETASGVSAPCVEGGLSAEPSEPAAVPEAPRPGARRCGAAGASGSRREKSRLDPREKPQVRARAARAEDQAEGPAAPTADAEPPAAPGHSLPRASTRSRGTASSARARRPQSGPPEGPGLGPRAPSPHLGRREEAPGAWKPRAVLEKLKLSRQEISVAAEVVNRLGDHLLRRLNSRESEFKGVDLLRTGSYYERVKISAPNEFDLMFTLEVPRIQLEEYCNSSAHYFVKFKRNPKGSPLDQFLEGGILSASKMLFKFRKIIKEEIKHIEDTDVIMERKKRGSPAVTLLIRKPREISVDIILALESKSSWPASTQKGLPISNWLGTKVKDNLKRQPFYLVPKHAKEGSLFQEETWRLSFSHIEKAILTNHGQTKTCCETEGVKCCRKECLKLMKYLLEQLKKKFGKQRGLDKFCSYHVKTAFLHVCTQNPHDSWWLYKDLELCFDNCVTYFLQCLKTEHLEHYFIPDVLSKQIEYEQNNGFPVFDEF
The experiment is described as follows: co-IP; 1 mg total protein extract of bovine bladder samples (RIPA buffer), anti-cGAS antibody, 1 h at 4°C, Protein A/G-Plus Agarose overnight at 4°C, four washes in lysis buffer, western blot.
Turning to “bovine papillomavirus (BPV) E5 oncoprotein”, the binding entry is on record as “no binding”.
